Reference: the supplement of paper PMC4604168 (melanoma cell lines)
The list shows a part of the results. Repeats are few or missing, and single values can be far off.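 The apoptosis fraction was the count of cleaved-PARP antibody-stained nuclei relative to all DNA-stained nuclei, imaged in 1,536-well plates. Screening doses were set so most cells survived, and baseline and induced cleaved-PARP levels vary greatly across cell lines.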

How the values were obtained:
Test in all cases: cleaved PARP positive nuclei fraction relative to DMSO control; melanoma cells; higher = more apoptosis
Details in all cases: library dose: low library concentration; 72 h
MZ2-MEL = tested on: MZ2-MEL
MeWo = tested on: MeWo
RPMI7951 = tested on: RPMI7951
RVH-421 = tested on: RVH-421
SkMel28 = tested on: SkMel28
SkMel2 = tested on: SkMel2
SkMel30 = tested on: SkMel30
SkMel5 = tested on: SkMel5
UACC257 = tested on: UACC257
UACC62 = tested on: UACC62
WM115 = tested on: WM115
WM1716 = tested on: WM1716
WM1745 = tested on: WM1745
WM3526 = tested on: WM3526
WM3619 = tested on: WM3619
WM451Lu = tested on: WM451Lu

| Structure (SMILES) | cleaved PARP positive nuclei fraction (MZ2-MEL) [%] | cleaved PARP positive nuclei fraction (MeWo) [%] | cleaved PARP positive nuclei fraction (RPMI7951) [%] | cleaved PARP positive nuclei fraction (RVH-421) [%] | cleaved PARP positive nuclei fraction (SkMel28) [%] | cleaved PARP positive nuclei fraction (SkMel2) [%] | cleaved PARP positive nuclei fraction (SkMel30) [%] | cleaved PARP positive nuclei fraction (SkMel5) [%] | cleaved PARP positive nuclei fraction (UACC257) [%] | cleaved PARP positive nuclei fraction (UACC62) [%] | cleaved PARP positive nuclei fraction (WM115) [%] | cleaved PARP positive nuclei fraction (WM1716) [%] | cleaved PARP positive nuclei fraction (WM1745) [%] | cleaved PARP positive nuclei fraction (WM3526) [%] | cleaved PARP positive nuclei fraction (WM3619) [%] | cleaved PARP positive nuclei fraction (WM451Lu) [%] |
| --- | --- | --- | --- | --- | --- | --- | --- | --- | --- | --- | --- | --- | --- | --- | --- | --- |
| CC(=O)c1c(C)c2cnc(Nc3ccc(N4CCNCC4)cn3)nc2n(C2CCCC2)c1=O [palbociclib] + O=C(Nc1cccc(Cl)c1)Nc1ncc(CCNc2ncnc3ccsc23)s1 [SNS314] (first compound 0.04 µM, partner dose 0.0008 µM) | 41.9 | 130 | 61.6 | 264 | 68.2 | 27.7 | 70.4 | 61 | 171 | 109 | 240 | 131 | 139 | 89 | 143 | 134 |
| Cn1nnc2c(C(N)=O)ncn2c1=O [temozolomide] + Cn1cncc1[C@@](N)(c1ccc(Cl)cc1)c1ccc2c(c1)c(-c1cccc(Cl)c1)cc(=O)n2C [tipifarnib] (first compound 2 µM, partner dose 0.01 µM) | 76.8 | 99.4 | 56.9 | 296 | 73.6 | 165 | 92.9 | 134 | 289 | 448 | 290 | 28.4 | 95.7 | 59.2 | 96.1 | 143 |
| COc1cc(Nc2ncc(F)c(Nc3ccc4c(n3)NC(=O)C(C)(C)O4)n2)cc(OC)c1OC [Tamatinib] + CC(C)(C)c1cnc(CSc2cnc(NC(=O)C3CCNCC3)s2)o1 [SNS-032] (first compound 0.4 µM, partner dose 0.01 µM) | 148 | 72.6 | 72 | 181 | 265 | 136 | 78.9 | 138 | 80.2 | 230 | 73 | 172 | 124 | 80.7 | 81.6 | 49.3 |
| Cc1nc(Nc2ncc(C(=O)Nc3c(C)cccc3Cl)s2)cc(N2CCN(CCO)CC2)n1 [dasatanib] + CC1(C)NC(=O)N(c2ccc([N+](=O)[O-])c(C(F)(F)F)c2)C1=O [nilutamide] (first compound 0.004 µM, partner dose 1 µM) | 139 | 197 | 180 | 93.3 | 75.3 | 56.8 | 218 | 101 | 104 | 50.1 | 120 | 288 | 127 | 24.9 | 98.1 | 60 |
| COc1cc(Nc2ncc(F)c(Nc3ccc4c(n3)NC(=O)C(C)(C)O4)n2)cc(OC)c1OC [Tamatinib] + NCC(=O)Nc1ccc(-n2nc(C(F)(F)F)cc2-c2ccc3c(ccc4ccccc43)c2)cc1 [OSU03012] (first compound 0.4 µM, partner dose 1 µM) | 92.8 | 738 | 103 | 415 | 880 | 194 | 11100 | 185 | 64.2 | 367 | 49.7 | 151 | 124 | 114 | 111 | 477 |
| OCc1c[nH]c2ccccc12 [Indole-3-carbinol] + Cc1cc([N+](=O)[O-])ccc1NS(=O)(=O)c1cc(Cl)ccc1Cl [FH535] (first compound 0.8 µM, partner dose 1 µM) | 120 | 44 | 62.5 | 130 | 47 | 115 | 42.2 | 88.8 | 191 | 88.4 | 90 | 208 | 75 | 218 | 92.6 | 72.9 |
| OCc1c[nH]c2ccccc12 [Indole-3-carbinol] + CC(C)CCN1c2nc(Nc3cc(F)c(O)c(F)c3)ncc2N(C)C(=O)C1C [BID1870] (first compound 0.8 µM, partner dose 0.2 µM) | 28.5 | 139 | 114 | 218 | 132 | 27.7 | 344 | 75.5 | 89.3 | 76.9 | 153 | 106 | 90.6 | 163 | 85.9 | 78.5 |
| CC(=O)c1c(C)c2cnc(Nc3ccc(N4CCNCC4)cn3)nc2n(C2CCCC2)c1=O [palbociclib] + NCC(=O)Nc1ccc(-n2nc(C(F)(F)F)cc2-c2ccc3c(ccc4ccccc43)c2)cc1 [OSU03012] (first compound 0.04 µM, partner dose 1 µM) | 63.2 | 53.7 | 179 | 100 | 162 | 144 | 120 | 195 | 77.3 | 230 | 199 | 99.7 | 120 | 74.8 | 129 | 235 |
| C=CCn1c(=O)c2cnc(Nc3ccc(N4CCN(C)CC4)cc3)nc2n1-c1cccc(C(C)(C)O)n1 + COc1cc2c(Oc3ccc4[nH]c(C)cc4c3F)ncnc2cc1OCCCN1CCCC1 [cediranib] (first compound 0.02 µM, partner dose 0.4 µM) | 28.8 | 110 | 54.6 | 483 | 182 | 95.1 | 76.1 | 158 | 42.2 | 216 | 122 | 178 | 122 | 117 | 126 | 180 |
| OCCn1cc(-c2cnc3nnn(Cc4ccc5ncccc5c4)c3n2)cn1 + O=C(O)c1ccc(-c2c[nH]c3ncc(-c4ccccc4)cc23)cc1C1CCCC1 [GSK650394] (first compound 1 µM, partner dose 0.16 µM) | 108 | 106 | 110 | 202 | 127 | 174 | 64.6 | 149 | 107 | 93 | 28.6 | 65.8 | 92.3 | 162 | 78.2 | 30.1 |
| CC1(C)NC(=O)N(c2ccc([N+](=O)[O-])c(C(F)(F)F)c2)C1=O [nilutamide] + CC(C)(C)c1cnc(CSc2cnc(NC(=O)C3CCNCC3)s2)o1 [SNS-032] (first compound 1 µM, partner dose 0.01 µM) | 155 | 66.7 | 179 | 76.5 | 34.8 | 62.9 | 55.1 | 33.9 | 144 | 39.6 | 83.1 | 96 | 107 | 27.9 | 88.2 | 188 |
| Cn1nnc2c(C(N)=O)ncn2c1=O [temozolomide] + NC(=O)Nc1cc(-c2cccc(F)c2)sc1C(=O)N[C@H]1CCCNC1 [AZD7762] (first compound 2 µM, partner dose 0.02 µM) | 258 | 158 | 56.8 | 82.1 | 54.1 | 57.7 | 208 | 63.5 | 58.8 | 28 | 110 | 90.3 | 92.9 | 123 | 186 | 30.2 |
| Cc1nc(Nc2ncc(C(=O)Nc3c(C)cccc3Cl)s2)cc(N2CCN(CCO)CC2)n1 [dasatanib] + COc1cc2c(Oc3ccc4[nH]c(C)cc4c3F)ncnc2cc1OCCCN1CCCC1 [cediranib] (first compound 0.004 µM, partner dose 0.4 µM) | 46.6 | 38.9 | 168 | 46.8 | 1250 | 106 | 61.6 | 369 | 203 | 216 | 98.3 | 440 | 128 | 143 | 101 | 176 |
| Clc1ccc(Nc2nnc(Cc3ccncc3)c3ccccc23)cc1 [vatalanib] + O=C(O)c1ccc(-c2c[nH]c3ncc(-c4ccccc4)cc23)cc1C1CCCC1 [GSK650394] (first compound 2 µM, partner dose 0.16 µM) | 177 | 139 | 80.2 | 76.1 | 290 | 128 | 121 | 159 | 145 | 89.8 | 23.8 | 143 | 216 | 87.7 | 81.3 | 98.8 |
| OCc1c[nH]c2ccccc12 [Indole-3-carbinol] + NC(=O)Nc1cc(-c2cccc(F)c2)sc1C(=O)N[C@H]1CCCNC1 [AZD7762] (first compound 0.8 µM, partner dose 0.02 µM) | 94.4 | 90.8 | 231 | 83.4 | 69.7 | 138 | 60.7 | 120 | 142 | 202 | 68.7 | 129 | 97.6 | 64.3 | 122 | 366 |
| Cn1nnc2c(C(N)=O)ncn2c1=O [temozolomide] + CN(C)S(=O)(=O)c1ccc2c(c1)/C(=C/c1cc3c([nH]1)CCCC3)C(=O)N2 [SU6656] (first compound 2 µM, partner dose 0.4 µM) | 128 | 98.5 | 44.9 | 124 | 71.6 | 43.9 | 77.2 | 77.2 | 35.1 | 78 | 297 | 55 | 97.9 | 113 | 100 | 110 |
| Cc1ccc(NC(=O)c2cccc(N(C)C)c2)cc1NC(=O)c1ccc(O)cc1 + O=C(O)c1ccc(-c2c[nH]c3ncc(-c4ccccc4)cc23)cc1C1CCCC1 [GSK650394] (first compound 2 µM, partner dose 0.16 µM) | 47.9 | 223 | 97.5 | 91.8 | 86.9 | 46.7 | 72.1 | 64.2 | 283 | 262 | 237 | 102 | 93.7 | 60.2 | 109 | 77 |
| O=C(CCCCCCC(=O)Nc1ccccc1)NO [vorinostat] + O=C(Nc1cccc(Cl)c1)Nc1ncc(CCNc2ncnc3ccsc23)s1 [SNS314] (first compound 0.08 µM, partner dose 0.0008 µM) | 207 | 103 | 105 | 55 | 34.8 | 57.6 | 58.4 | 72.4 | 164 | 79.9 | 132 | 139 | 121 | 58.8 | 92.4 | 123 |
| C=CCNC1=C2C[C@@H](C)C[C@H](OC)[C@H](O)[C@@H](C)/C=C(\C)[C@H](OC(N)=O)[C@@H](OC)/C=C\C=C(/C)C(=O)NC(=CC1=O)C2=O [Tanespimycin] + Oc1cc(-c2nc(-c3ccccc3)[nH]c2-c2ccncc2)ccc1Cl [L779450] (first compound 0.002 µM, partner dose 0.2 µM) | 68.9 | 84.1 | 155 | 81 | 189 | 57.7 | 80.5 | 145 | 95.9 | 135 | 104 | 91.8 | 113 | 84.6 | 100 | 35.7 |

An excerpt from further up, for reference:

| Structure (SMILES) | cleaved PARP positive nuclei fraction (MZ2-MEL) [%] | cleaved PARP positive nuclei fraction (MeWo) [%] | cleaved PARP positive nuclei fraction (RPMI7951) [%] | cleaved PARP positive nuclei fraction (RVH-421) [%] | cleaved PARP positive nuclei fraction (SkMel28) [%] | cleaved PARP positive nuclei fraction (SkMel2) [%] | cleaved PARP positive nuclei fraction (SkMel30) [%] | cleaved PARP positive nuclei fraction (SkMel5) [%] | cleaved PARP positive nuclei fraction (UACC257) [%] | cleaved PARP positive nuclei fraction (UACC62) [%] | cleaved PARP positive nuclei fraction (WM115) [%] | cleaved PARP positive nuclei fraction (WM1716) [%] | cleaved PARP positive nuclei fraction (WM1745) [%] | cleaved PARP positive nuclei fraction (WM3526) [%] | cleaved PARP positive nuclei fraction (WM3619) [%] | cleaved PARP positive nuclei fraction (WM451Lu) [%] |
| --- | --- | --- | --- | --- | --- | --- | --- | --- | --- | --- | --- | --- | --- | --- | --- | --- |
| OCc1c[nH]c2ccccc12 [Indole-3-carbinol] + Cc1cc([N+](=O)[O-])ccc1NS(=O)(=O)c1cc(Cl)ccc1Cl [FH535] (first compound 0.8 µM, partner dose 1 µM) | 120 | 44 | 62.5 | 130 | 47 | 115 | 42.2 | 88.8 | 191 | 88.4 | 90 | 208 | 75 | 218 | 92.6 | 72.9 |
| OCc1c[nH]c2ccccc12 [Indole-3-carbinol] + CC(C)CCN1c2nc(Nc3cc(F)c(O)c(F)c3)ncc2N(C)C(=O)C1C [BID1870] (first compound 0.8 µM, partner dose 0.2 µM) | 28.5 | 139 | 114 | 218 | 132 | 27.7 | 344 | 75.5 | 89.3 | 76.9 | 153 | 106 | 90.6 | 163 | 85.9 | 78.5 |
| CC(=O)c1c(C)c2cnc(Nc3ccc(N4CCNCC4)cn3)nc2n(C2CCCC2)c1=O [palbociclib] + NCC(=O)Nc1ccc(-n2nc(C(F)(F)F)cc2-c2ccc3c(ccc4ccccc43)c2)cc1 [OSU03012] (first compound 0.04 µM, partner dose 1 µM) | 63.2 | 53.7 | 179 | 100 | 162 | 144 | 120 | 195 | 77.3 | 230 | 199 | 99.7 | 120 | 74.8 | 129 | 235 |
